Laboratory results from the supplement of paper PMC10849652.
Some of the results follow.

Chains of the proteins cited; added tags and fusions are not shown. Lines headed by an entry give the natural chain unless they say otherwise; changes in a name come on top.
UniProt P48200: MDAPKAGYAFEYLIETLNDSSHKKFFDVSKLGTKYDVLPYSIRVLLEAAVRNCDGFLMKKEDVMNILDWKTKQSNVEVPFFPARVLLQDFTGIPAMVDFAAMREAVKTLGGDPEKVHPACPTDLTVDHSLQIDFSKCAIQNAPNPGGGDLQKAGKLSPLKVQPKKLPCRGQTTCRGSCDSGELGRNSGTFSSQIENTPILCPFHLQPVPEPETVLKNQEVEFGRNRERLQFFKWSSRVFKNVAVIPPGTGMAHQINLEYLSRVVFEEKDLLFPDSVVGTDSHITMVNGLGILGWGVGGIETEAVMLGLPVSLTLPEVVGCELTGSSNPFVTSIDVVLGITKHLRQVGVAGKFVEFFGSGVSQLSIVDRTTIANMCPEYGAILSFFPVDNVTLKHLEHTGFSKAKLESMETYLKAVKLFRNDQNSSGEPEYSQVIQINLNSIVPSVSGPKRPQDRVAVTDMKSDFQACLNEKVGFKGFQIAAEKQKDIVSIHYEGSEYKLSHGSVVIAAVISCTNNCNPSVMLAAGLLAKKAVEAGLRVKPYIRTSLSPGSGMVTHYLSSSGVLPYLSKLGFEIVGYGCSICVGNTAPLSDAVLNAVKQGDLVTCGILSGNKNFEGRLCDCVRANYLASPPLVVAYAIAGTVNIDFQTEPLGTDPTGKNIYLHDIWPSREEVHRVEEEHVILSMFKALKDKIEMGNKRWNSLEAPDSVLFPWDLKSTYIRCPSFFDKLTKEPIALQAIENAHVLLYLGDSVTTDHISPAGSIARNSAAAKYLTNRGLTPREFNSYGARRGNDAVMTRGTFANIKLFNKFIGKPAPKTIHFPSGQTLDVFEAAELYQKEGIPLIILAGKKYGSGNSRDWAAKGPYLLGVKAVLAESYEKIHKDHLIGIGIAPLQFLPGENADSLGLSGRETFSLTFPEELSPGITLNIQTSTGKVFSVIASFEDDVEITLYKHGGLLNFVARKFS
UniProt P48735: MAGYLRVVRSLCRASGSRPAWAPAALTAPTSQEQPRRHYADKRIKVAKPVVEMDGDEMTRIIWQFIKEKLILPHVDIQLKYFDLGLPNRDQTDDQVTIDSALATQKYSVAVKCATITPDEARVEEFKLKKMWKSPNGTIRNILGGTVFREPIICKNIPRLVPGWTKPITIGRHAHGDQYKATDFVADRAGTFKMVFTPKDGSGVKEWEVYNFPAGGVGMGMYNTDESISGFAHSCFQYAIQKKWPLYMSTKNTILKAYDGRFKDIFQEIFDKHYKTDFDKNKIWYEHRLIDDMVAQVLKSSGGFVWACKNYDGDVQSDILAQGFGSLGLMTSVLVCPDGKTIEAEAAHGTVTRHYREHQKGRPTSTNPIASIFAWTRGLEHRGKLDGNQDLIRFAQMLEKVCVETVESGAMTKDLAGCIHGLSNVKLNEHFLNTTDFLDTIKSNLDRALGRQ
UniProt O43736: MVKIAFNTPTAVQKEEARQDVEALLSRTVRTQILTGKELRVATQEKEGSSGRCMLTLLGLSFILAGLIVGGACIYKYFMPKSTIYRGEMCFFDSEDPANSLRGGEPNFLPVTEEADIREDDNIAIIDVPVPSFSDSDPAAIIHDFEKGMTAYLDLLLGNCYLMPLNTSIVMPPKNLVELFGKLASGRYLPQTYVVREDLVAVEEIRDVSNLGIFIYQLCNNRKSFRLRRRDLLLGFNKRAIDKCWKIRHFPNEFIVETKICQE
UniProt P53990, whole entry, looked up: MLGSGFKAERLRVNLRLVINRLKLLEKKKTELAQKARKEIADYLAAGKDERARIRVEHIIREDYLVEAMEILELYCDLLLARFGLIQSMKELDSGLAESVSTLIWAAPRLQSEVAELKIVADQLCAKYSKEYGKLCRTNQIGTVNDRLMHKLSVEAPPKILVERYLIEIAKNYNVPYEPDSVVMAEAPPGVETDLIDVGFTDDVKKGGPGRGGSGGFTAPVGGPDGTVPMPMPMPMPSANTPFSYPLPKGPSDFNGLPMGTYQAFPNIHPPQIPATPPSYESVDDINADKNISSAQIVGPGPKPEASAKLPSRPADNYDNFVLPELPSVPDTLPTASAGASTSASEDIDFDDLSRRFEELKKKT
UniProt Q9NX62: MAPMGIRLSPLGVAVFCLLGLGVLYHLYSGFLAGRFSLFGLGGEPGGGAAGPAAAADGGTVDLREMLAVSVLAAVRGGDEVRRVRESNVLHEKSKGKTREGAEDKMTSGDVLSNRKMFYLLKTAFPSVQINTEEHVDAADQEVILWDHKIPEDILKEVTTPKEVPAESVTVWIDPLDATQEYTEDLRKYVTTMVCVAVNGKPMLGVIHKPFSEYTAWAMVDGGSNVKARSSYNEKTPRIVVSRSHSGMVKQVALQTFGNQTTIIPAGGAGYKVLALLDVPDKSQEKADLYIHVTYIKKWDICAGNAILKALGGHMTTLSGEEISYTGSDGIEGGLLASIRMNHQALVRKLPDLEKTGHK
UniProt P05556, whole entry, looked up: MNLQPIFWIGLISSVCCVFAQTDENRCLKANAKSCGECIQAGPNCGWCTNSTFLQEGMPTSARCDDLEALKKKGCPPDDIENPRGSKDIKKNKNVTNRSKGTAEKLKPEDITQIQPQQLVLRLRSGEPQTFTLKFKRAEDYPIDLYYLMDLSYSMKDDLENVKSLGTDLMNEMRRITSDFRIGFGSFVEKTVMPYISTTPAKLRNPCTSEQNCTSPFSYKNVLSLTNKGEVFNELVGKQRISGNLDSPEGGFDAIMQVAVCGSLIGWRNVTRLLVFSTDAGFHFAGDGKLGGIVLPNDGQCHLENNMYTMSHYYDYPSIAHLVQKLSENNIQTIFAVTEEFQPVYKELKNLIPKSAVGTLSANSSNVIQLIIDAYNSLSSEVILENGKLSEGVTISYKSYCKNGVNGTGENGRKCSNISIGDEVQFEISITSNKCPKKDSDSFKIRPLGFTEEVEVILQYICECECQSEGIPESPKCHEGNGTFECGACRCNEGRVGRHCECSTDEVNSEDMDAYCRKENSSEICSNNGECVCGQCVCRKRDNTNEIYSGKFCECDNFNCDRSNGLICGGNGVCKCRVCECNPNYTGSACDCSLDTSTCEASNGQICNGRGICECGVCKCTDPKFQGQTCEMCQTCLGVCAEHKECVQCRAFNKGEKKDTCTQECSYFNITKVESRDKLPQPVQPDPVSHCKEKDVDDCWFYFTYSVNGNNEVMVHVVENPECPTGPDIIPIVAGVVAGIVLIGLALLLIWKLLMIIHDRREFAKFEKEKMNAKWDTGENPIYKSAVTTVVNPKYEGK
UniProt Q8WZA9: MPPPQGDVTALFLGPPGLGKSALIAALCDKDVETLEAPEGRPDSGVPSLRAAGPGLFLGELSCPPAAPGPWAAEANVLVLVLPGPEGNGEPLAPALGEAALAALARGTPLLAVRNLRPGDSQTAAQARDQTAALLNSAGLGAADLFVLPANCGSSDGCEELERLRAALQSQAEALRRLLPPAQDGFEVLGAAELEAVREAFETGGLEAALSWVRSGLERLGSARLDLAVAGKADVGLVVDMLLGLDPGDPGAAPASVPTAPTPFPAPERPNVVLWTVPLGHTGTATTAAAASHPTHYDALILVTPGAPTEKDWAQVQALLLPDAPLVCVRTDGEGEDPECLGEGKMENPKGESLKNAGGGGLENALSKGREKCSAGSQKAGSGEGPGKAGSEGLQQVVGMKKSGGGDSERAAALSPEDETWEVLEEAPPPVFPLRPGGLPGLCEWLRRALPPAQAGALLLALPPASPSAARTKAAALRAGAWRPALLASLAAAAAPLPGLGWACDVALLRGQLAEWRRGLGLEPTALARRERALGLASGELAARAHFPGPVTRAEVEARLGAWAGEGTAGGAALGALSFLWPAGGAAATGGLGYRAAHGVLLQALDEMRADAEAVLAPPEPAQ
UniProt O75874, whole entry, looked up: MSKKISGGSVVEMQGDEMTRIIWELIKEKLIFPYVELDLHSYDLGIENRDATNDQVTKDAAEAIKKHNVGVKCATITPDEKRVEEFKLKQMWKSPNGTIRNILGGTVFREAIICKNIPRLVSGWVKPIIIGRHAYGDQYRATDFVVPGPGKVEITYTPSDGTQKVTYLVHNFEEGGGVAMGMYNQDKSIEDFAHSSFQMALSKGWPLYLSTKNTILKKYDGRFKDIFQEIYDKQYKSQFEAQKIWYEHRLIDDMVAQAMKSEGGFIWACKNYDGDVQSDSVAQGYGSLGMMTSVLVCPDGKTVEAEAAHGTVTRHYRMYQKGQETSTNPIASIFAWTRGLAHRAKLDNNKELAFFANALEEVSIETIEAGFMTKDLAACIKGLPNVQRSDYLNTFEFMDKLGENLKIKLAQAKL
UniProt Q9H1K1: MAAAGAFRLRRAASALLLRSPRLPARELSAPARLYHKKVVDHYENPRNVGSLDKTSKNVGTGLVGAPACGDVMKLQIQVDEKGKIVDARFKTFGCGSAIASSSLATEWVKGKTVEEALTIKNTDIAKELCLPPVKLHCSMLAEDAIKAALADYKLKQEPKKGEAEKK
UniProt P05161, whole entry, looked up: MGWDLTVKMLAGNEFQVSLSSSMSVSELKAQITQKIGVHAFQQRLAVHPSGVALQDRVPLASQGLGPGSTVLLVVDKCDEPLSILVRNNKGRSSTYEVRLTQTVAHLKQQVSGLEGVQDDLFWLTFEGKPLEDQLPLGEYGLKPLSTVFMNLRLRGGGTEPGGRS
UniProt P06756, whole entry, looked up: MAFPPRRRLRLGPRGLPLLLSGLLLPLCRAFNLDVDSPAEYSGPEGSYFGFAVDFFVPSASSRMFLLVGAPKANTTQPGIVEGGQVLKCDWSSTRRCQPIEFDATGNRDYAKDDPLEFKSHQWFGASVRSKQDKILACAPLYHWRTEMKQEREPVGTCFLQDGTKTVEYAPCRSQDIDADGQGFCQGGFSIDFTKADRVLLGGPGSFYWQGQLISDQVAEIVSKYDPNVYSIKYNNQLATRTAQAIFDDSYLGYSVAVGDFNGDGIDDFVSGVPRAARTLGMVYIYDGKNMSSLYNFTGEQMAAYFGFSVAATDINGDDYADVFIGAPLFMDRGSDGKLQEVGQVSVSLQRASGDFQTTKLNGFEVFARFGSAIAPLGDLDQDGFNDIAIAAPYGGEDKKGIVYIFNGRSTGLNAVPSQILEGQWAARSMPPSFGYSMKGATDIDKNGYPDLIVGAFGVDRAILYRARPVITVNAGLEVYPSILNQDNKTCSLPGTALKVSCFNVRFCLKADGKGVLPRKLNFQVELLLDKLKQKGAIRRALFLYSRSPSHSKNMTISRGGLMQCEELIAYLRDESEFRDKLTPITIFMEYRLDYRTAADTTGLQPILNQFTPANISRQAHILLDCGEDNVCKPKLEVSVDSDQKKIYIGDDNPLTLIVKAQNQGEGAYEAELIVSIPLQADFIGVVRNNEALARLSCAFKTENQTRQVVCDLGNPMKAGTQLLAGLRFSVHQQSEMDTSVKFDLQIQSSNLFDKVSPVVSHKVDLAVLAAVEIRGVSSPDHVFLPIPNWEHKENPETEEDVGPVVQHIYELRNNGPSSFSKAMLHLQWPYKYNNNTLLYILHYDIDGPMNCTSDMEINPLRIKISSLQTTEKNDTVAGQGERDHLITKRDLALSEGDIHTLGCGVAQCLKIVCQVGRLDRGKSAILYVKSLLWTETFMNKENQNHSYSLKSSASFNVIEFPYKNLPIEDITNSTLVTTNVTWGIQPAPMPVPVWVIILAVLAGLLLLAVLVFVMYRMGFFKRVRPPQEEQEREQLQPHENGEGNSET
UniProt Q9ULR0: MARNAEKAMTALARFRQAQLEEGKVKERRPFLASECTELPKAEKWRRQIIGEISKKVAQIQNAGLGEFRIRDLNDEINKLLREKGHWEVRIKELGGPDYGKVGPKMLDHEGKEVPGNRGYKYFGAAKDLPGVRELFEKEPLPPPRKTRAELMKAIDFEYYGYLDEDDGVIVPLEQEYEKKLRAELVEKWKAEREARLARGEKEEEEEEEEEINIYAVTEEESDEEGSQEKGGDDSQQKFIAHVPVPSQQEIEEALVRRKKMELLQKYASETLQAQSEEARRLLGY
UniProt Q9NV88, whole entry, looked up: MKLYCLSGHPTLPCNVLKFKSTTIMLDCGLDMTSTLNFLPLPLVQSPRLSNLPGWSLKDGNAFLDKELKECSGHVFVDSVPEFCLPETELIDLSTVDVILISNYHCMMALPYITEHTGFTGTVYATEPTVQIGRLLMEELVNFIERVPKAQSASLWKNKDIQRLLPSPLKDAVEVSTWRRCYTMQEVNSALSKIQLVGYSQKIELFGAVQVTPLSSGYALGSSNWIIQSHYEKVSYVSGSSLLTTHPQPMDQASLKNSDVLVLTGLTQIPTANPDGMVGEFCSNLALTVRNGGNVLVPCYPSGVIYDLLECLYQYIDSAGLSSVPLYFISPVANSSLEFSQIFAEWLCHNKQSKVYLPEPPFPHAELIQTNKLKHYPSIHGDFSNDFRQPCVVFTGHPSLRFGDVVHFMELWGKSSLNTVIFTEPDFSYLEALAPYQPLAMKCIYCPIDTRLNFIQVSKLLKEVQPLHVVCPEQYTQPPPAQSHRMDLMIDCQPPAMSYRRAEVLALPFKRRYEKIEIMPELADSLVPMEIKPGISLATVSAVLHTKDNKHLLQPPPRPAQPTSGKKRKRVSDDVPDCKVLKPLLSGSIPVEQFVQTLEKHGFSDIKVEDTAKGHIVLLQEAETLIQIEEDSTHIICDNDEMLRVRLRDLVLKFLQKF

Assays:
Assay in all cases: log2 fold change, soluble protein after heating vs DMSO (PISA); higher = thermal stabilisation; K562 cells, 10 uM, 30 min; active = over 0.2 and 3.5 SD of the protein, either way, in both replicates (recomputed)
[1] = compound: COC1=CC=C(C=C1)CN2C=CC3=C2C=C(C=C3)C(=O)NO
How it was run: (§1)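 Soluble protein was defined as the supernatant after 21,000xg for 90 min. It came from K562 cells at 2×10^6 cells/mL given 10 μM compound for 30 min, heated in aliquots for 3 min across 48°C-58°C, pooled, and extracted in PBS with 0.5% NP-40 at 4°C, and was quantified by TMTpro 16plex LC-MS/MS with equalised channel sums. Thermal stability against control samples, from duplicates, is reported as log2 fold change.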

filanesib = compound: CON(C)C(=O)N1N=C(c2cc(F)ccc2F)S[C@@]1(CCCN)c1ccccc1 [filanesib]
How it was run: as §1

zotarolimus = compound: CO[C@H]1C[C@@H]2CC[C@@H](C)[C@@](O)(O2)C(=O)C(=O)N2CCCC[C@H]2C(=O)O[C@H]([C@H](C)C[C@@H]2CC[C@H](n3cnnn3)[C@H](OC)C2)CC(=O)[C@H](C)/C=C(\C)[C@@H](O)[C@@H](OC)C(=O)[C@H](C)C[C@H](C)/C=C/C=C/C=C/1C [zotarolimus]
How it was run: as §1

idasanutlin = compound: COc1cc(C(=O)O)ccc1NC(=O)[C@@H]1N[C@@H](CC(C)(C)C)[C@](C#N)(c2ccc(Cl)cc2F)[C@H]1c1cccc(Cl)c1F [idasanutlin]
How it was run: as §1

alisertib = compound: COc1cc(Nc2ncc3c(n2)-c2ccc(Cl)cc2C(c2c(F)cccc2OC)=NC3)ccc1C(=O)O [alisertib]
How it was run: as §1

[2] = compound: COc1cc2nc(-c3cc(F)ccc3O)nc(N[C@@H]3CNC[C@H]3C(C)(C)O)c2cc1OC
How it was run: as §1

gefitinib = compound: COc1cc2ncnc(Nc3ccc(F)c(Cl)c3)c2cc1OCCCN1CCOCC1 [gefitinib]
How it was run: as §1

[3] = compound: COc1cccc2cc(-c3nc([C@H]4CC[C@H](C(=O)O)CC4)n4ncnc(N)c34)[nH]c12
How it was run: as §1

lapatinib = compound: CS(=O)(=O)CCNCc1ccc(-c2ccc3ncnc(Nc4ccc(OCc5cccc(F)c5)c(Cl)c4)c3c2)o1 [lapatinib]
How it was run: as §1

pictilisib = compound: CS(=O)(=O)N1CCN(Cc2cc3nc(-c4cccc5[nH]ncc45)nc(N4CCOCC4)c3s2)CC1 [pictilisib]
How it was run: as §1

[4] = compound: CS(=O)(=O)c1ccc(-c2cnc(N)c(C(=O)Nc3ccccc3)n2)cc1
How it was run: as §1

crizotinib = compound: C[C@@H](Oc1cc(-c2cnn(C3CCNCC3)c2)cnc1N)c1c(Cl)ccc(F)c1Cl [crizotinib]
How it was run: as §1

[5] = compound: C[C@@H]1COCCN1C2=NC(=NC(=C2)C3(CC3)S(=O)(=O)C)C4=C5C=CNC5=CC=C4
How it was run: as §1

[6] = compound: C[C@H](C1=CC=C(C=C1)C(=O)NC2=C3C=CNC3=NC=C2)N
How it was run: as §1

duvelisib = compound: C[C@H](Nc1ncnc2nc[nH]c12)c1cc2cccc(Cl)c2c(=O)n1-c1ccccc1 [duvelisib]
How it was run: as §1

gandotinib = compound: Cc1cc(Nc2cc(CN3CCOCC3)c3nc(C)c(Cc4ccc(Cl)cc4F)n3n2)n[nH]1 [gandotinib]
How it was run: as §1

tozasertib = compound: Cc1cc(Nc2cc(N3CCN(C)CC3)nc(Sc3ccc(NC(=O)C4CC4)cc3)n2)n[nH]1 [tozasertib]
How it was run: as §1

[7] = compound: Cc1cc(SCc2sc(-c3ccc(C(F)(F)F)cc3)nc2C)ccc1OCC(=O)O
How it was run: as §1

doramapimod = compound: Cc1ccc(-n2nc(C(C)(C)C)cc2NC(=O)Nc2ccc(OCCN3CCOCC3)c3ccccc23)cc1 [doramapimod]
How it was run: as §1

ispinesib = compound: Cc1ccc(C(=O)N(CCCN)[C@@H](c2nc3cc(Cl)ccc3c(=O)n2Cc2ccccc2)C(C)C)cc1 [ispinesib]
How it was run: as §1

Measured: log2 fold change

IREB2 (UniProt P48200)
inactive: [1] -0.169 | filanesib 0.032 | zotarolimus -0.009 | idasanutlin 0.033 | alisertib -0.056 | [2] 0.004 | gefitinib -0.067 | [3] -0.052 | lapatinib 0.011 | pictilisib 0.04 | [4] 0.013 | crizotinib -0.016 | [5] 0.026 | [6] 0.024 | duvelisib -0.037 | gandotinib -0.121 | tozasertib 0.002 | [7] 0.019 | doramapimod 0.079 | ispinesib -0.042

ITGB5 (UniProt P18084)
inactive: [1] 0.005 | filanesib -0.035 | zotarolimus -0.077 | idasanutlin 0.028 | alisertib 0.021 | [2] 0 | gefitinib 0.02 | [3] 0.075 | lapatinib -0.022 | pictilisib -0.027 | [4] 0.021 | crizotinib 0.013 | [5] -0.016 | [6] 0.094 | duvelisib 0.028 | gandotinib 0.1 | tozasertib -0.003 | [7] -0.044 | doramapimod 0.033 | ispinesib 0

IDH2 (UniProt P48735)
inactive: [1] -0.018 | filanesib -0.035 | zotarolimus 0.023 | idasanutlin -0.074 | alisertib -0.025 | [2] 0.031 | gefitinib 0.025 | [3] 0.03 | lapatinib 0.013 | pictilisib 0.096 | [4] 0.032 | crizotinib 0.097 | [5] 0.159 | [6] -0.028 | duvelisib -0.01 | gandotinib 0.028 | tozasertib -0.04 | [7] -0.011 | doramapimod -0.019 | ispinesib 0.173

IL18 (UniProt Q14116)
inactive: [1] -0.038 | filanesib 0.008 | zotarolimus -0.017 | idasanutlin -0.07 | alisertib -0.007 | [2] 0.036 | gefitinib -0.028 | [3] 0.088 | lapatinib 0.002 | pictilisib -0.008 | [4] 0.011 | crizotinib 0.016 | [5] -0.032 | [6] -0.017 | duvelisib 0.068 | gandotinib -0.003 | tozasertib -0.057 | [7] -0.038 | doramapimod 0.002 | ispinesib 0.035

ITM2A (UniProt O43736)
inactive: [1] -0.006 | filanesib 0.143 | zotarolimus 0.043 | idasanutlin -0.004 | alisertib -0.076 | [2] 0.104 | gefitinib -0.002 | [3] -0.193 | lapatinib 0.063 | pictilisib 0.091 | [4] 0.033 | crizotinib -0.019 | [5] -0.11 | [6] 0.11 | duvelisib 0.069 | gandotinib 0.071 | tozasertib 0.025 | [7] -0.034 | doramapimod 0.03 | ispinesib 0.069

IST1 isoform 5 (UniProt P53990)
inactive: [1] -0.006 | filanesib -0.169 | zotarolimus 0.035 | idasanutlin -0.071 | alisertib -0.001 | [2] -0.008 | gefitinib -0.015 | [3] -0.111 | lapatinib -0.026 | pictilisib -0.035 | [4] -0.029 | crizotinib -0.08 | [5] 0.038 | [6] -0.054 | duvelisib 0.015 | gandotinib -0.085 | tozasertib -0.012 | [7] 0.074 | doramapimod -0.046 | ispinesib -0.149

IMPAD1 (UniProt Q9NX62)
inactive: [1] 0.005 | filanesib -0.037 | zotarolimus -0.041 | idasanutlin -0.072 | alisertib 0.007 | [2] -0.01 | gefitinib 0.035 | [3] 0.032 | lapatinib -0.04 | pictilisib 0.145 | [4] 0.017 | crizotinib -0.057 | [5] 0.014 | [6] -0.005 | duvelisib 0.081 | gandotinib 0.045 | tozasertib -0.017 | [7] -0.093 | doramapimod 0 | ispinesib -0.046

ITGB1 (UniProt P05556)
inactive: [1] -0.027 | filanesib 0.029 | zotarolimus -0.006 | idasanutlin 0.066 | alisertib -0.066 | [2] 0.014 | gefitinib 0.03 | [3] -0.003 | lapatinib -0.005 | pictilisib 0.039 | [4] 0.011 | crizotinib 0.091 | [5] 0.031 | [6] -0.038 | duvelisib 0.009 | gandotinib 0.019 | tozasertib -0.004 | [7] -0.034 | doramapimod -0.016 | ispinesib 0.07

IRGQ (UniProt Q8WZA9)
inactive: [1] -0.024 | filanesib -0.042 | zotarolimus 0.054 | idasanutlin -0.075 | alisertib 0.064 | [2] 0.096 | gefitinib -0.016 | [3] -0.008 | lapatinib 0 | pictilisib -0.01 | [4] -0.022 | crizotinib 0.008 | [5] 0.066 | [6] -0.052 | duvelisib -0.003 | gandotinib -0.026 | tozasertib 0.001 | [7] 0.049 | doramapimod 0.023 | ispinesib -0.01

IDH1 (UniProt O75874)
inactive: [1] 0.026 | filanesib -0.06 | zotarolimus -0.031 | idasanutlin -0.026 | alisertib -0.008 | [2] 0.028 | gefitinib -0.003 | [3] 0.055 | lapatinib -0.037 | pictilisib 0.017 | [4] -0.016 | crizotinib 0.003 | [5] 0.013 | [6] -0.071 | duvelisib 0.02 | gandotinib -0.007 | tozasertib -0.043 | [7] -0.027 | doramapimod -0.028 | ispinesib 0.027

ISCA2 (UniProt Q86U28)
inactive: [1] 0.08 | filanesib -0.062 | zotarolimus -0.033 | idasanutlin 0.008 | alisertib -0.041 | [2] -0.035 | gefitinib 0.003 | [3] -0.024 | lapatinib -0.026 | pictilisib 0.045 | [4] 0.047 | crizotinib 0.087 | [5] 0.101 | [6] -0.101 | duvelisib 0.052 | gandotinib 0.036 | tozasertib 0.057 | [7] 0.06 | doramapimod 0.014 | ispinesib 0.026

ISCU (UniProt Q9H1K1)
inactive: [1] -0.1 | filanesib -0.021 | zotarolimus -0.023 | idasanutlin 0.003 | alisertib 0.041 | [2] -0.025 | gefitinib -0.022 | [3] 0.043 | lapatinib 0.01 | pictilisib -0.037 | [4] 0.057 | crizotinib 0.063 | [5] 0.077 | [6] -0.002 | duvelisib 0.051 | gandotinib 0.008 | tozasertib -0.018 | [7] -0.057 | doramapimod 0 | ispinesib 0.019

ISG15 (UniProt P05161)
inactive: [1] 0.05 | filanesib -0.02 | zotarolimus 0.01 | idasanutlin 0.026 | alisertib -0.03 | [2] -0.075 | gefitinib 0.06 | [3] -0.01 | lapatinib 0.02 | pictilisib 0.026 | [4] 0.061 | crizotinib -0.053 | [5] 0.061 | [6] -0.047 | duvelisib 0.088 | gandotinib -0.068 | tozasertib 0.081 | [7] 0.127 | doramapimod -0.239 | ispinesib 0.048

Looked up one by one from the list above (2):
ISCA2 (UniProt Q86U28)
inactive: [1] 0.08 | filanesib -0.062 | zotarolimus -0.033 | idasanutlin 0.008 | alisertib -0.041 | [2] -0.035 | gefitinib 0.003 | [3] -0.024 | lapatinib -0.026 | pictilisib 0.045 | [4] 0.047 | crizotinib 0.087 | [5] 0.101 | [6] -0.101 | duvelisib 0.052 | gandotinib 0.036 | tozasertib 0.057 | [7] 0.06 | doramapimod 0.014 | ispinesib 0.026

ISCU (UniProt Q9H1K1)
inactive: [1] -0.1 | filanesib -0.021 | zotarolimus -0.023 | idasanutlin 0.003 | alisertib 0.041 | [2] -0.025 | gefitinib -0.022 | [3] 0.043 | lapatinib 0.01 | pictilisib -0.037 | [4] 0.057 | crizotinib 0.063 | [5] 0.077 | [6] -0.002 | duvelisib 0.051 | gandotinib 0.008 | tozasertib -0.018 | [7] -0.057 | doramapimod 0 | ispinesib 0.019

Continued:

ITGAV (UniProt P06756)
inactive: [1] -0.027 | filanesib 0.028 | zotarolimus -0.01 | idasanutlin 0.037 | alisertib -0.093 | [2] -0.008 | gefitinib 0.049 | [3] 0.003 | lapatinib -0.02 | pictilisib 0.062 | [4] 0.022 | crizotinib -0.025 | [5] 0.19 | [6] -0.016 | duvelisib 0.04 | gandotinib 0.04 | tozasertib -0.038 | [7] -0.041 | doramapimod 0.053 | ispinesib -0.014

ISY1 isoform 1 (UniProt Q9ULR0)
inactive: [1] -0.074 | filanesib 0.086 | zotarolimus -0.033 | idasanutlin 0.021 | alisertib -0.029 | [2] 0.051 | gefitinib -0.045 | [3] 0.006 | lapatinib -0.008 | pictilisib 0.086 | [4] -0.022 | crizotinib 0.207 | [5] 0.045 | [6] 0.029 | duvelisib 0.045 | gandotinib 0.033 | tozasertib -0.007 | [7] -0.072 | doramapimod 0.023 | ispinesib 0.023

INTS9 (UniProt Q9NV88)
inactive: [1] -0.016 | filanesib -0.032 | zotarolimus 0.031 | idasanutlin -0.082 | alisertib 0.042 | [2] 0.035 | gefitinib 0.031 | [3] 0.016 | lapatinib -0.036 | pictilisib 0.028 | [4] 0.026 | crizotinib 0.017 | [5] 0.061 | [6] -0.053 | duvelisib 0.041 | gandotinib 0.007 | tozasertib 0.002 | [7] 0.015 | doramapimod 0 | ispinesib 0.066
